Test in all cases: split reporter; BiFC (YN/YC halves of YFP) in Agrobacterium GV3101-infiltrated N. benthamiana leaves; confocal microscopy; nucleus marked by NLS-mCherry
In assay [1] the target is C-terminus of AS2, BiFC fusion (Arabidopsis thaliana).
For assay [2], the target named is N-terminus of AS1, BiFC fusion (Arabidopsis thaliana).
Assay [3] concerns the target N-terminus of AS2, BiFC fusion (Arabidopsis thaliana).

These are yes or no findings as the source states them, for the method shown. Binding seen in cells or lysates may run through a third protein. For part of these data: A result given as binding can be weak or reduced; the word gives no strength. Where a sequence is shown, tags or fusion partners need not be part of it.

B1: KRYPTONITE/SUPPRESSOR OF …ON 3-9 HOMOLOG 4 (KYP/SUVH4), full length, BiFC fusion (enzyme, UniProt Q8GZB6 1-624)
chain: MAGKRKRANAPDQTERRSSVRVQKVRQKALDEKARLVQERVKLLSDRKSEICVDDTELHEKEEENVDGSPKRRSPPKLTAMQKGKQKLSVSLNGKDVNLEPHLKVTKCLRLFNKQYLLCVQAKLSRPDLKGVTEMIKAKAILYPRKIIGDLPGIDVGHRFFSRAEMCAVGFHNHWLNGIDYMSMEYEKEYSNYKLPLAVSIVMSGQYEDDLDNADTVTYTGQGGHNLTGNKRQIKDQLLERGNLALKHCCEYNVPVRVTRGHNCKSSYTKRVYTYDGLYKVEKFWAQKGVSGFTVYKYRLKRLEGQPELTTDQVNFVAGRIPTSTSEIEGLVCEDISGGLEFKGIPATNRVDDSPVSPTSGFTYIKSLIIEPNVIIPKSSTGCNCRGSCTDSKKCACAKLNGGNFPYVDLNDGRLIESRDVVFECGPHCGCGPKCVNRTSQKRLRFNLEVFRSAKKGWAVRSWEYIPAGSPVCEYIGVVRRTADVDTISDNEYIFEIDCQQTMQGLGGRQRRLRDVAVPMNNGVSQSSEDENAPEFCIDAGSTGNFARFINHSCEPNLFVQCVLSSHQDIRLARVVLFAADNISPMQELTYDYGYALDSVHGPDGKVKQLACYCGALNCRKRLY
Turning to B1, the binding result is “no binding” in assay [1], “binds” in assay [2] and “binds” in assay [3].

These data come from publication PMC9958104, “Arabidopsis histone H3 lysine 9 methyltransferases KYP/SUVH5/6 are involved in leaf development by interacting with AS1-AS2 to repress KNAT1 and KNAT2” (Communications Biology, 2023).
